doi:10.1101/227918
These are yes or no findings as the source states them, for the method shown. In cells and extracts the contact can be indirect. Some binding calls cover weakened binding; strength is not graded here. Tags and fused reporters may be left off the sequences shown.

The chains behind the UniProt entries cited, without tags or fusion partners.
UniProt Q9P126: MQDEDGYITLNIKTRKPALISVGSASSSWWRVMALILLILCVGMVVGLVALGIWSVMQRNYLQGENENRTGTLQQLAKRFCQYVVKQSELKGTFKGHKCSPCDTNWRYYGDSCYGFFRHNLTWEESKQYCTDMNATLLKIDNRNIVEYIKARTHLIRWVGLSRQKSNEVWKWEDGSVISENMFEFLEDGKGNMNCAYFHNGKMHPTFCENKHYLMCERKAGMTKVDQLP

Target: T1, FLAG-human CD37 (human) (UniProt P11049)
T1 sequence: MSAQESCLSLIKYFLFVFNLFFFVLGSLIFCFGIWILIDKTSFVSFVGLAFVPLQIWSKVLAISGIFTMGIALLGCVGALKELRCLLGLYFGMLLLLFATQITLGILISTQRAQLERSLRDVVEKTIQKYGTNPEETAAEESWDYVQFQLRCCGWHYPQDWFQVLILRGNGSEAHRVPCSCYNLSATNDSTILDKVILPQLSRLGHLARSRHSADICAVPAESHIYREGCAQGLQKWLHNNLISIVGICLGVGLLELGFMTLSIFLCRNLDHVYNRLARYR
Test: co-IP

binding: binds
Substance: human CLEC-2-MYC (C-type lectin-like receptor 2) (from UniProt Q9P126 1-229)
